Source: PubChem BioAssay AID1224830 (NIAID, 2016)

- Assay: 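Genes whose knock-down alters the TNF-alpha reporter response to LPS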 (primary screen)
- System: human THP-1 monocytic leukaemia cells, TNF dual-luciferase reporter clone, PMA-differentiated to macrophage-like cells
- Reagents: siRNA pool against human genes, 50 nM
- Time to read-out: LPS for 4 h, given about 3 days after siRNA transfection
- Treatment: bacterial LPS (TLR4 ligand), 10 ng/ml
- Read-out: 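TNF firefly reporter luminescence divided by renilla, normalised to the plate median, then turned into a robust z-score for each replicate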
- Reading the numbers: TNF reporter robust z-score: higher = stronger TNF reporter response to LPS
- Active means: 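a well is active when its z-score exceeds 2.8 or falls below -1.5; control wells carry no call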
This is a random part of about 18,000 reagents tested. About 2,900 of all reagents (16%) were called active. 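Calls are made per well; low scores hint the gene aids the LPS response, high scores that it dampens it.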 Repeated entries: four replicate wells of each siRNA pool.

| gene | TNF reporter robust z-score | call |
| --- | --- | --- |
| NECAP1 | 0.96 | inactive |
| NECAP1 | 3.38 | active |
| NECAP1 | 1.98 | inactive |
| NECAP1 | 1.49 | inactive |
| CD2BP2 | -0.48 | inactive |
| CD2BP2 | -1.22 | inactive |
| CD2BP2 | -1.04 | inactive |
| CD2BP2 | -0.47 | inactive |
| ABCC2 | 1.11 | inactive |
| ABCC2 | 1.19 | inactive |
| ABCC2 | 2.14 | inactive |
| ABCC2 | 1.9 | inactive |
| ZER1 | 0.39 | inactive |
| ZER1 | 0.15 | inactive |
| ZER1 | -0.75 | inactive |
| ZER1 | -0.64 | inactive |
| GLDC | -0.26 | inactive |
| GLDC | -0.1 | inactive |
| GLDC | 0.86 | inactive |
| GLDC | 1.25 | inactive |
| GPA33 | -1.77 | active |
| GPA33 | -0.8 | inactive |
| GPA33 | -0.91 | inactive |
| GPA33 | 0.1 | inactive |
| PEX14 | 0.2 | inactive |
| PEX14 | 0.06 | inactive |
| PEX14 | 1.93 | inactive |
| PEX14 | 0.67 | inactive |
| SKIC3 | -0.1 | inactive |
| SKIC3 | 0.1 | inactive |
| SKIC3 | -0.58 | inactive |
| SKIC3 | -0.15 | inactive |
| PCDHGA8 | 0.35 | inactive |
| PCDHGA8 | 0.15 | inactive |
| PCDHGA8 | 2.07 | inactive |
| TIAM1 | -0.5 | inactive |
| TIAM1 | 0.89 | inactive |
| TIAM1 | 0.51 | inactive |
| TIAM1 | 1.43 | inactive |
| PNMA1 | -1.17 | inactive |
| PNMA1 | 0.43 | inactive |
| PNMA1 | -1.4 | inactive |
| PNMA1 | -0.9 | inactive |
| PTCRA | -0.5 | inactive |
| PTCRA | 0.52 | inactive |
| PTCRA | -0.29 | inactive |
| PTCRA | -0.9 | inactive |
| ACAD11 | 1.11 | inactive |
| ACAD11 | 1 | inactive |
| ACAD11 | 0.77 | inactive |
| ACAD11 | 0.72 | inactive |
| ZGPAT | -0.28 | inactive |
| ZGPAT | 0.25 | inactive |
| ZGPAT | -0.19 | inactive |
| ZGPAT | -0.59 | inactive |
| LYPD5 | 0.24 | inactive |
| LYPD5 | 1 | inactive |
| LYPD5 | 0.52 | inactive |
| LYPD5 | 1.82 | inactive |
| KIAA0319L | -0.32 | inactive |
| KIAA0319L | -0.92 | inactive |
| KIAA0319L | -0.13 | inactive |
| KIAA0319L | -0.16 | inactive |
| PRPSAP1 | 0.15 | inactive |
| PRPSAP1 | 0.3 | inactive |
| PRPSAP1 | 0.71 | inactive |
| PRPSAP1 | 1.19 | inactive |
| ITK | -0.61 | inactive |
| ITK | -0.15 | inactive |
| ITK | -0.87 | inactive |
| ITK | -1.06 | inactive |
| ACAA1 | -0.07 | inactive |
| ACAA1 | 0.62 | inactive |
| ACAA1 | -0.13 | inactive |
| ACAA1 | 1.65 | inactive |
| PYCR3 | -1.4 | inactive |
| PYCR3 | -1.71 | active |
| PYCR3 | -1.3 | inactive |
| PYCR3 | -1.26 | inactive |
| ZSWIM1 | -0.19 | inactive |
| ZSWIM1 | -1.06 | inactive |
| ZSWIM1 | -1.68 | active |
| ZSWIM1 | -0.83 | inactive |
| OR5M1 | 0.12 | inactive |
| OR5M1 | 0.84 | inactive |
| OR5M1 | 0.91 | inactive |
| OR5M1 | 1.4 | inactive |
| KCNH3 | -0.2 | inactive |
| KCNH3 | 0.37 | inactive |
| KCNH3 | -0.71 | inactive |
| KCNH3 | 0.82 | inactive |
| AOC2 | -0.25 | inactive |
| AOC2 | 3.91 | active |
| AOC2 | 1.02 | inactive |
| AOC2 | 2.72 | inactive |
| PROZ | -0.13 | inactive |
| PROZ | 0.36 | inactive |
| PROZ | -0.11 | inactive |
| PROZ | -1.44 | inactive |
| SHROOM3 | 0.66 | inactive |
| SHROOM3 | 1.13 | inactive |
| SHROOM3 | 0.36 | inactive |
| SHROOM3 | 0.99 | inactive |
| GAB1 | 1.04 | inactive |
| GAB1 | 0.13 | inactive |
| GAB1 | -0.37 | inactive |
| GAB1 | -0.16 | inactive |
| ALG10 | 0.59 | inactive |
| ALG10 | 0.13 | inactive |
| ALG10 | 1.1 | inactive |
| ALG10 | 1.13 | inactive |

An excerpt taken from the entries so far, as a working copy:
| gene | TNF reporter robust z-score | call |
| --- | --- | --- |
| ITK | -0.15 | inactive |
| ITK | -0.87 | inactive |
| ITK | -1.06 | inactive |
| ACAA1 | -0.07 | inactive |
| ACAA1 | 0.62 | inactive |
| ACAA1 | -0.13 | inactive |
| ACAA1 | 1.65 | inactive |
| PYCR3 | -1.4 | inactive |
| PYCR3 | -1.71 | active |
| PYCR3 | -1.3 | inactive |
| PYCR3 | -1.26 | inactive |
